Assay results taken from patent US6440400B1, “Trimethylcylohexane derivatives and melanin-formation inhibitors and perfumeholding agents with the use of the same” (Takasago International Corporation, priority 1998, dated 2002).
Where a name gives a salt, the structure may show the parent alone.

Experiments:
[1] = Organoleptic evaluation of fragrance using scent papers; conditions: 7 trained panelists
[2] = Expression test of neat fragrance; conditions: 1:1 by weight with retainer, closed 30 minutes, vs fixative-free sample
[3] = Fixative test of neat fragrance; conditions: 1:1 by weight with retainer, open about 8 hours at room temperature, vs fixative-free sample

For `CCCCCCC(O)CCC1C(C)CCCC1(C)C` (stereo not drawn) [1^4′j], the Quality of fragrances [1] was “Almost odorless”.

With `CCCCCCCCCC(O)CCC1C(C)CCCC1(C)C` (stereo not drawn) [1^4′o, 1-(2′,2′,6′-Trimethylcyclohexan-1′-yl)-dodecan-3-ol] the Quality of fragrances [1] was “Odorless”.

In the case of `O=C(OCc1ccccc1)c1ccccc1` [Benzyl benzoate, benzyl benzoate], the “Fragrance expression test rating (total of scores of 10 panelists)” value (from here on “Fragrance expression test rating”) ([2]; fragrance methylnonylketone) is reported as 7, the “Fragrance expression test rating” value ([2]; fragrance n-decylaldehyde) is reported as 8 and the “Fragrance fixative test rating (total of scores of 10 panelists)” value (“Fragrance fixative test rating” below) ([3]; fragrance ethyl octanoate) is reported as 13. The “Fragrance fixative test rating” value ([3]; fragrance methylnonylketone) was 16 and the “Fragrance fixative test rating” value ([3]; fragrance n-decylaldehyde) was 7.

With `CCCCCC(O)CCC1C(C)CCCC1(C)C` (stereo not drawn) [Compound 1^4′i, 1-(2′,2′,6′-Trimethylcyclohexan-1′-yl)-octan-3-ol] the Quality of fragrances [1] was “Very weak, siight amber scent”.

For `CCCCCCCC(O)CCC1C(C)CCCC1(C)C` (stereo not drawn) [Compound 1^4′m, 1-(2′,2′,6′-Trimethylcyclohexan-1′-yl)-decan-3-ol], the Quality of fragrances [1] was “Odorless”.

For `CCCCCC(O)C=CC1C(C)CCCC1(C)C` (stereo not drawn) [Compound 1″i, 1-(2′,2′,6′-trimethylcyclohexan-1′-yl)octan-1-en-3-ol], the Quality of fragrances [1] was “Odorless”, the “Fragrance expression test rating” value ([2]; fragrance methylnonylketone) was 13 and the “Fragrance expression test rating” value ([2]; fragrance n-decylaldehyde) was 12. For the same molecule, the “Fragrance fixative test rating” value ([3]; fragrance ethyl octanoate) was 16, the “Fragrance fixative test rating” value ([3]; fragrance methylnonylketone) was 20 and the “Fragrance fixative test rating” value ([3]; fragrance n-decylaldehyde) was 15.

With `CC(C)CCCC(O)C=CC1C(C)CCCC1(C)C` (stereo not drawn) [Compound 1″k, 1-(2′,2′,6′-Trimethylcyclohexan-1′-yl)-7-methyloctan-1-en-3-ol] the Quality of fragrances [1] was “Odorless”.

With `CC(=O)CCC1=C(C)CCCC1(C)C` [Dihydro-β-ionone, dihydro-β-ionone, reference compound] the Quality of fragrances [1] was “Amber-nuanced woody floral scent”.

In the case of `CC(O)CCC1C(C)CCCC1(C)C` (stereo not drawn) [Tetrahydroionol, tetrahydroionol, reference compound], the Quality of fragrances [1] is reported as “Dry and woody scent”.

With `CCOC(=O)CC(O)(CC(=O)OCC)C(=O)OCC` [Triethyl citrate, triethyl citrate] the “Fragrance expression test rating” value ([2]; fragrance methylnonylketone) was 8, the “Fragrance expression test rating” value ([2]; fragrance n-decylaldehyde) was 8 and the “Fragrance fixative test rating” value ([3]; fragrance ethyl octanoate) was 11. For the same molecule, the “Fragrance fixative test rating” value ([3]; fragrance methylnonylketone) was 13 and the “Fragrance fixative test rating” value ([3]; fragrance n-decylaldehyde) was 8.

With `CC(=O)/C=C/C1=C(C)CCCC1(C)C` [β-Ionone, β-ionone, reference compound] the Quality of fragrances [1] was “Sweet and potently woody floral”.
